Test results from the supplement of paper PMC10849652.
The other results are listed elsewhere or left out.

Chains of the proteins cited; added tags and fusions are not shown. Lines headed by an entry give the natural chain unless they say otherwise; changes in a name come on top.
UniProt P48163: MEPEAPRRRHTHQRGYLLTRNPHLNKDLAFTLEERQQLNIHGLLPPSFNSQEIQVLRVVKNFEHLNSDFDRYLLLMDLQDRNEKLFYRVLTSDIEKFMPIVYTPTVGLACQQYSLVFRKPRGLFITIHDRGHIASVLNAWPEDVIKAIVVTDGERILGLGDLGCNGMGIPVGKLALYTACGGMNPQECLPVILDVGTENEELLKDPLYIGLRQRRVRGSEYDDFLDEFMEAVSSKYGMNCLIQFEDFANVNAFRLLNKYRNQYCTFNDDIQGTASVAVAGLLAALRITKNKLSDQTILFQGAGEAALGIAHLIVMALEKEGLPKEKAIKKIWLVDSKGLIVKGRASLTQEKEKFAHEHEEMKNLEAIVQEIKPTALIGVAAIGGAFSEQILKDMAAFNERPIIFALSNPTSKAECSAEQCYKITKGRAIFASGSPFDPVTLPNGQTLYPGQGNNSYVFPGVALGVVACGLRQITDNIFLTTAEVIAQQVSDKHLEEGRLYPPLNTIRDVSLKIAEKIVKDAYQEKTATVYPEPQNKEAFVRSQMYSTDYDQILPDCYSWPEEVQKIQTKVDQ
UniProt P33993, whole entry, looked up: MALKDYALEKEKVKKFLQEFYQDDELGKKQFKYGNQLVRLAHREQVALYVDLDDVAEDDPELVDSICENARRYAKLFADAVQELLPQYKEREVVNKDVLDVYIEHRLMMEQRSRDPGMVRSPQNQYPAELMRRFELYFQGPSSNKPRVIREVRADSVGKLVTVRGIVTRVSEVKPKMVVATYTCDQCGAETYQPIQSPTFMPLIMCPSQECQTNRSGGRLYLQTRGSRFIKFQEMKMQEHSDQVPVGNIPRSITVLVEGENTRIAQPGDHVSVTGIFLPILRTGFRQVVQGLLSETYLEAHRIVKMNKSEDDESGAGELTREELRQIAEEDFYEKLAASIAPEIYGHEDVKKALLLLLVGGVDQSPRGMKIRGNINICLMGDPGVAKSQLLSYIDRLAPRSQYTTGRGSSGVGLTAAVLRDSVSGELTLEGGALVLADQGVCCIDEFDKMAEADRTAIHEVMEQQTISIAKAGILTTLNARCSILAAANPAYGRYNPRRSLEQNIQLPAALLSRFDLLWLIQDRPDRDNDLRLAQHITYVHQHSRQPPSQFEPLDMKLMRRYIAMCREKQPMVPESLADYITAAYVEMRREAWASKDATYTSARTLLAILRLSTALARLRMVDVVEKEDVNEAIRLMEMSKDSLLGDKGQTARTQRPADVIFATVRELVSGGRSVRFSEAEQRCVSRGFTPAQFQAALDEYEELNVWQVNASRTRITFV
UniProt P31153, whole entry, looked up: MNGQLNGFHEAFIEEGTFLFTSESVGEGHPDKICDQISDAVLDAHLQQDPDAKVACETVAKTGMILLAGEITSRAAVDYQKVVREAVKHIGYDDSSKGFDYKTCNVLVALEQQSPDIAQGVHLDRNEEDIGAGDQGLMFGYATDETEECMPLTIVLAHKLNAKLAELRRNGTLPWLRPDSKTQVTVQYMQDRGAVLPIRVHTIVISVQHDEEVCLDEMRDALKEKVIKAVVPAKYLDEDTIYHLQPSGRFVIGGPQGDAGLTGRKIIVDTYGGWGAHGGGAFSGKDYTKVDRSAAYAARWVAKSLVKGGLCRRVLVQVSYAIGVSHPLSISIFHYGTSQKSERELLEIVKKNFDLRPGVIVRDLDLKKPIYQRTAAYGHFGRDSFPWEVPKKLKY
UniProt Q9HCE5: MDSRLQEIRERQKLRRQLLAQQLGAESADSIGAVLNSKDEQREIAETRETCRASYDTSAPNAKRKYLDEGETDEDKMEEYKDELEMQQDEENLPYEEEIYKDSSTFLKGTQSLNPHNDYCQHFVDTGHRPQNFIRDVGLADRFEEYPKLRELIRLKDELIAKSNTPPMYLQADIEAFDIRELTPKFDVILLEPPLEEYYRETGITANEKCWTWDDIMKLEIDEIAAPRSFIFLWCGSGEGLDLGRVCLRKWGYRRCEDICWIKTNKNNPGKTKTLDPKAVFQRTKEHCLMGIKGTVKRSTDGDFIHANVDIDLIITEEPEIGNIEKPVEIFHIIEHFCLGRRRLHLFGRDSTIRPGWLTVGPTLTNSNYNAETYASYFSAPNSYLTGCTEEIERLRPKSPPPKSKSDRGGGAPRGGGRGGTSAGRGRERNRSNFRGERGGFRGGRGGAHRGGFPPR
UniProt Q8WXB1: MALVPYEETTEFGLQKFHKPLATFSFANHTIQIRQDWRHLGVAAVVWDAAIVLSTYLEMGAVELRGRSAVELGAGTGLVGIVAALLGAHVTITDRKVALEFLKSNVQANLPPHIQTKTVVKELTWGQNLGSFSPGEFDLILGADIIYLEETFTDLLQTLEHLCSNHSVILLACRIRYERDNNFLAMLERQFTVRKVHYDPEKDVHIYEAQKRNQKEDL
UniProt Q9ULK4: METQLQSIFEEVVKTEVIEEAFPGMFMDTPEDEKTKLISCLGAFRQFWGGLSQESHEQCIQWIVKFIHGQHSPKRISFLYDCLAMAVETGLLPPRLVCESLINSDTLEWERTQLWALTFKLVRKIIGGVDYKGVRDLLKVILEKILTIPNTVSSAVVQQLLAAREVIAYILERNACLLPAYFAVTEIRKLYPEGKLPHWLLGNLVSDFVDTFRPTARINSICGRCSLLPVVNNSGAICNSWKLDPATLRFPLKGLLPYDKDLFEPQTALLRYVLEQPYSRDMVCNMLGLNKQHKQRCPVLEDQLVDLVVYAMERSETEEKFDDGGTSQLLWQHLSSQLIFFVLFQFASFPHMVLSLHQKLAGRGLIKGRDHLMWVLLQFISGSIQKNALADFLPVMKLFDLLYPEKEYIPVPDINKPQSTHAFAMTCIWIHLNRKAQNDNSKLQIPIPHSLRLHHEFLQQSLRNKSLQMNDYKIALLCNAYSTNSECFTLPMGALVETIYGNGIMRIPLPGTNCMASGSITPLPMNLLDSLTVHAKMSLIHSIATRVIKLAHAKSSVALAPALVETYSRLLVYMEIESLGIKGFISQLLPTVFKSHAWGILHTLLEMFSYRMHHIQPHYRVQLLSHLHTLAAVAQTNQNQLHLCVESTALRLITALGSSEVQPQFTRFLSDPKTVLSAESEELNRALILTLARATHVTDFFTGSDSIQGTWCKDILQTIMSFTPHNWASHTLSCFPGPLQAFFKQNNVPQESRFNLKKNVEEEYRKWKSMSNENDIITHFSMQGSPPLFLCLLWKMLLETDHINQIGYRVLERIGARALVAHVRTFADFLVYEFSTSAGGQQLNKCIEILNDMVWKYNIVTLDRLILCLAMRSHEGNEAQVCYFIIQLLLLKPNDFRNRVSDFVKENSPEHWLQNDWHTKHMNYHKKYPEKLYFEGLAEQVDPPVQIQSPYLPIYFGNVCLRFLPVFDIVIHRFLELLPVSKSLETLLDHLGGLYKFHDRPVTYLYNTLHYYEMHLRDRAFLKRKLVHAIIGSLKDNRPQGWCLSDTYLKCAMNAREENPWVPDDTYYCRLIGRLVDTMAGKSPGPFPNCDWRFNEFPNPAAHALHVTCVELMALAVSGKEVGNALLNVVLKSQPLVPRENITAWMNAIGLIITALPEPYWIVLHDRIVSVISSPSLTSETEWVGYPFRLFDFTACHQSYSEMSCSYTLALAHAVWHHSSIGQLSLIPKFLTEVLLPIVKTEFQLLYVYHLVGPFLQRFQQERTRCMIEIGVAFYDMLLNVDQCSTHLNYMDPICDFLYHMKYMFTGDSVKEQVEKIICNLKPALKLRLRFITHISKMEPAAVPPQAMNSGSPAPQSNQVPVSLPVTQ
UniProt Q8NI22: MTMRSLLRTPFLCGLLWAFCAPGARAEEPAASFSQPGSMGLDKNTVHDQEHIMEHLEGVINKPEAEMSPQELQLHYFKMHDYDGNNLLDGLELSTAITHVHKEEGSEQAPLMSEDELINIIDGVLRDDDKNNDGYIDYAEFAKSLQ
UniProt P33991: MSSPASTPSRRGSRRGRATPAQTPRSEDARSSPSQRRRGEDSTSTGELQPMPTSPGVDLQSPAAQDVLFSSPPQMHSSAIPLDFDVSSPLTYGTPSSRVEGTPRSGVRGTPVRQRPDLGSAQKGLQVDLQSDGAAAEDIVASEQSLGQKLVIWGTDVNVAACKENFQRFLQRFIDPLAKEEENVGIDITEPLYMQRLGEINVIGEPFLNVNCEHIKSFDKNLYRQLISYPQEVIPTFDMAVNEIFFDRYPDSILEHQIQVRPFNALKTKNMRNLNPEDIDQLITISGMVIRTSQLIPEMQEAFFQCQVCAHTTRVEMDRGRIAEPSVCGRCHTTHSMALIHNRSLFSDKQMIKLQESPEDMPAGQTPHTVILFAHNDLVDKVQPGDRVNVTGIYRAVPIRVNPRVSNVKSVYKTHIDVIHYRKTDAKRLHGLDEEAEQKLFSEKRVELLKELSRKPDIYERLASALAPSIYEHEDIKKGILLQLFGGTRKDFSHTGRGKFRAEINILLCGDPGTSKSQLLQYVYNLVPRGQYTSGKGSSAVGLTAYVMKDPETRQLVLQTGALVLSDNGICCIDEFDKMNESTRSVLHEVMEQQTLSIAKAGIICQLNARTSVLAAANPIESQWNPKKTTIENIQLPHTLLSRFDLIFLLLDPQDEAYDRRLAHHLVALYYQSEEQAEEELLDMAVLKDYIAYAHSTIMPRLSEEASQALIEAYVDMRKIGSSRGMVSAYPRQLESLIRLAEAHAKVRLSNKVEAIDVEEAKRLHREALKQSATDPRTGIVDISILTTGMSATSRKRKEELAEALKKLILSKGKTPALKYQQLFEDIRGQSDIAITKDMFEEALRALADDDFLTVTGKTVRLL
UniProt Q9BTT4: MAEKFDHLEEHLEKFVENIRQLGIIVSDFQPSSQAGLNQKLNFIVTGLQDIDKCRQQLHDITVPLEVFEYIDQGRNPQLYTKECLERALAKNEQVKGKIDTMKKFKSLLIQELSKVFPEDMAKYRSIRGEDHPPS
UniProt Q16626: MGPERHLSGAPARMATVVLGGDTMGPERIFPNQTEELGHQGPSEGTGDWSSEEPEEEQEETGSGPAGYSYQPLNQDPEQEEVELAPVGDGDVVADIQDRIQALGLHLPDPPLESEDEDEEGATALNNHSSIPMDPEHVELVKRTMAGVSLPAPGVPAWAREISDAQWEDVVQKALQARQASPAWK
UniProt Q96N66: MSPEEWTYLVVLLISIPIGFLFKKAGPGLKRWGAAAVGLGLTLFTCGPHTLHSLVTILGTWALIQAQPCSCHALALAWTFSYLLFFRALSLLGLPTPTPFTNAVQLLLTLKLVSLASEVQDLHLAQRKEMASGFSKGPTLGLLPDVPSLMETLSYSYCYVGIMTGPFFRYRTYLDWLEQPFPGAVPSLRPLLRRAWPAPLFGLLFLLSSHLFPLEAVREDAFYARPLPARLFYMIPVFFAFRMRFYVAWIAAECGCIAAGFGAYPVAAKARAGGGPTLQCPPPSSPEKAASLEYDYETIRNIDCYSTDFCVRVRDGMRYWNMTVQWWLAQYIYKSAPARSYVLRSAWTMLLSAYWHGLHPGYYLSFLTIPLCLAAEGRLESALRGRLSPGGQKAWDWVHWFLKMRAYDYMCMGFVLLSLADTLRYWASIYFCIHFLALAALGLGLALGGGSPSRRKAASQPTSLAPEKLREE
UniProt Q14703: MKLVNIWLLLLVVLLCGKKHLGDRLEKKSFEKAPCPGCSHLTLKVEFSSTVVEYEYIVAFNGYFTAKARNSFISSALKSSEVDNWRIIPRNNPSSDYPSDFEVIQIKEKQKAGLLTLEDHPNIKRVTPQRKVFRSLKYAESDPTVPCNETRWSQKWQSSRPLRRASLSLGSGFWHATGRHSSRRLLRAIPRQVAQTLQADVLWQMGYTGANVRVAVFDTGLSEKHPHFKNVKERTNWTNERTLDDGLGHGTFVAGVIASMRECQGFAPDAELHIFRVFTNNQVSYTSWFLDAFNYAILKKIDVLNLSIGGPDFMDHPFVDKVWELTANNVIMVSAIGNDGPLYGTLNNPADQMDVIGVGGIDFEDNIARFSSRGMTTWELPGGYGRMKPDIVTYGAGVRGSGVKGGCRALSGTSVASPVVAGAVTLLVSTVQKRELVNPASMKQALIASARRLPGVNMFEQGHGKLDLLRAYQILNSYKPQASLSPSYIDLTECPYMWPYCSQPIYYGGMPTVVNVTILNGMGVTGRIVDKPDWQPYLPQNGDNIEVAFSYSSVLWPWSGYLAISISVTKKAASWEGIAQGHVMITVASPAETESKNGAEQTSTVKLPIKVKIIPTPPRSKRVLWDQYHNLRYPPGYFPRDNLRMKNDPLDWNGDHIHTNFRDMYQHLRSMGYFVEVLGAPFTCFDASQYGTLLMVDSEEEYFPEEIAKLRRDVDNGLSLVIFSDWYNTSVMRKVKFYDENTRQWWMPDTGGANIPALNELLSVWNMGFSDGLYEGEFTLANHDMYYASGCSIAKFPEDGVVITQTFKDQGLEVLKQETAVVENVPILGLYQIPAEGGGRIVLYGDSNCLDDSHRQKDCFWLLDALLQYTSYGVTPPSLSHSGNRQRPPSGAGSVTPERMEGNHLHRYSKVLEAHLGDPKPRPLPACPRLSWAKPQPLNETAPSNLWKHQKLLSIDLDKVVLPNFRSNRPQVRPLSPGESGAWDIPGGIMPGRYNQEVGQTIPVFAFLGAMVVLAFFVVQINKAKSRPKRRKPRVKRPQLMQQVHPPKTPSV

Experiments:
Assay in all cases: log2 fold change, soluble protein after heating vs DMSO (PISA); higher = thermal stabilisation; K562 cells, 10 uM, 30 min; active = over 0.2 and 3.5 SD of the protein, either way, in both replicates (recomputed)
[1] = compound: COC1=CC=C(C=C1)CN2C=CC3=C2C=C(C=C3)C(=O)NO
Outline: (§1)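 K562 cells at 2×10^6 cells/mL were treated with 10 μM compound for 30 min. Aliquots were heated for 3 min across 48°C-58°C, pooled, and extracted in PBS with 0.5% NP-40 at 4°C; soluble protein was the supernatant after 21,000xg for 90 min. Soluble protein was quantified by TMTpro 16plex LC-MS/MS with channel sums equalised, and reported as log2 fold change in thermal stability against DMSO controls, with values from duplicates.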

filanesib = compound: CON(C)C(=O)N1N=C(c2cc(F)ccc2F)S[C@@]1(CCCN)c1ccccc1 [filanesib]
Outline: as §1

zotarolimus = compound: CO[C@H]1C[C@@H]2CC[C@@H](C)[C@@](O)(O2)C(=O)C(=O)N2CCCC[C@H]2C(=O)O[C@H]([C@H](C)C[C@@H]2CC[C@H](n3cnnn3)[C@H](OC)C2)CC(=O)[C@H](C)/C=C(\C)[C@@H](O)[C@@H](OC)C(=O)[C@H](C)C[C@H](C)/C=C/C=C/C=C/1C [zotarolimus]
Outline: as §1

idasanutlin = compound: COc1cc(C(=O)O)ccc1NC(=O)[C@@H]1N[C@@H](CC(C)(C)C)[C@](C#N)(c2ccc(Cl)cc2F)[C@H]1c1cccc(Cl)c1F [idasanutlin]
Outline: as §1

alisertib = compound: COc1cc(Nc2ncc3c(n2)-c2ccc(Cl)cc2C(c2c(F)cccc2OC)=NC3)ccc1C(=O)O [alisertib]
Outline: as §1

[2] = compound: COc1cc2nc(-c3cc(F)ccc3O)nc(N[C@@H]3CNC[C@H]3C(C)(C)O)c2cc1OC
Outline: as §1

gefitinib = compound: COc1cc2ncnc(Nc3ccc(F)c(Cl)c3)c2cc1OCCCN1CCOCC1 [gefitinib]
Outline: as §1

[3] = compound: COc1cccc2cc(-c3nc([C@H]4CC[C@H](C(=O)O)CC4)n4ncnc(N)c34)[nH]c12
Outline: as §1

lapatinib = compound: CS(=O)(=O)CCNCc1ccc(-c2ccc3ncnc(Nc4ccc(OCc5cccc(F)c5)c(Cl)c4)c3c2)o1 [lapatinib]
Outline: as §1

pictilisib = compound: CS(=O)(=O)N1CCN(Cc2cc3nc(-c4cccc5[nH]ncc45)nc(N4CCOCC4)c3s2)CC1 [pictilisib]
Outline: as §1

[4] = compound: CS(=O)(=O)c1ccc(-c2cnc(N)c(C(=O)Nc3ccccc3)n2)cc1
Outline: as §1

crizotinib = compound: C[C@@H](Oc1cc(-c2cnn(C3CCNCC3)c2)cnc1N)c1c(Cl)ccc(F)c1Cl [crizotinib]
Outline: as §1

[5] = compound: C[C@@H]1COCCN1C2=NC(=NC(=C2)C3(CC3)S(=O)(=O)C)C4=C5C=CNC5=CC=C4
Outline: as §1

[6] = compound: C[C@H](C1=CC=C(C=C1)C(=O)NC2=C3C=CNC3=NC=C2)N
Outline: as §1

duvelisib = compound: C[C@H](Nc1ncnc2nc[nH]c12)c1cc2cccc(Cl)c2c(=O)n1-c1ccccc1 [duvelisib]
Outline: as §1

gandotinib = compound: Cc1cc(Nc2cc(CN3CCOCC3)c3nc(C)c(Cc4ccc(Cl)cc4F)n3n2)n[nH]1 [gandotinib]
Outline: as §1

tozasertib = compound: Cc1cc(Nc2cc(N3CCN(C)CC3)nc(Sc3ccc(NC(=O)C4CC4)cc3)n2)n[nH]1 [tozasertib]
Outline: as §1

[7] = compound: Cc1cc(SCc2sc(-c3ccc(C(F)(F)F)cc3)nc2C)ccc1OCC(=O)O
Outline: as §1

doramapimod = compound: Cc1ccc(-n2nc(C(C)(C)C)cc2NC(=O)Nc2ccc(OCCN3CCOCC3)c3ccccc23)cc1 [doramapimod]
Outline: as §1

ispinesib = compound: Cc1ccc(C(=O)N(CCCN)[C@@H](c2nc3cc(Cl)ccc3c(=O)n2Cc2ccccc2)C(C)C)cc1 [ispinesib]
Outline: as §1

Measured: log2 fold change

ME1 (UniProt P48163)
inactive: [1] -0.084 | filanesib -0.035 | zotarolimus -0.015 | idasanutlin -0.014 | alisertib 0.055 | [2] 0.059 | gefitinib 0.024 | [3] 0.043 | lapatinib -0.024 | pictilisib 0.021 | [4] 0.015 | crizotinib 0.042 | [5] 0.031 | [6] -0.07 | duvelisib 0.07 | gandotinib 0.04 | tozasertib -0.032 | [7] -0.034 | doramapimod -0.012 | ispinesib 0.037

MCM7 (UniProt P33993)
inactive: [1] 0.059 | filanesib -0.049 | zotarolimus 0.023 | idasanutlin -0.03 | alisertib -0.056 | [2] -0.02 | gefitinib 0.007 | [3] 0.015 | lapatinib 0.005 | pictilisib -0.003 | [4] 0.028 | crizotinib -0.024 | [5] 0.033 | [6] -0.126 | duvelisib 0.004 | gandotinib -0.081 | tozasertib 0.008 | [7] -0.003 | doramapimod -0.003 | ispinesib 0.008

MED20 (UniProt Q9H944)
inactive: [1] 0.065 | filanesib 0.066 | zotarolimus 0.029 | idasanutlin -0.042 | alisertib -0.015 | [2] -0.013 | gefitinib 0.013 | [3] 0.015 | lapatinib -0.024 | pictilisib 0.004 | [4] -0.013 | crizotinib -0.024 | [5] 0.052 | [6] 0.01 | duvelisib 0.004 | gandotinib -0.073 | tozasertib -0.085 | [7] 0.004 | doramapimod 0.004 | ispinesib 0.02

MAT2A (UniProt P31153)
inactive: [1] -0.024 | filanesib -0.028 | zotarolimus -0.034 | idasanutlin 0.02 | alisertib -0.057 | [2] 0.043 | gefitinib 0.023 | [3] 0.027 | lapatinib -0.037 | pictilisib -0.057 | [4] 0.009 | crizotinib 0.067 | [5] 0.026 | [6] -0.038 | duvelisib 0.007 | gandotinib 0.023 | tozasertib -0.029 | [7] -0.048 | doramapimod -0.023 | ispinesib 0.029

METTL14 (UniProt Q9HCE5)
inactive: [1] -0.075 | filanesib -0.011 | zotarolimus 0.019 | idasanutlin -0.021 | alisertib -0.012 | [2] 0.016 | gefitinib 0.015 | [3] 0.036 | lapatinib 0.023 | pictilisib -0.008 | [4] 0.029 | crizotinib -0.006 | [5] 0.056 | [6] -0.022 | duvelisib 0.012 | gandotinib -0.013 | tozasertib -0.037 | [7] -0.019 | doramapimod 0.033 | ispinesib 0.001

MGAT2 (UniProt Q10469)
inactive: [1] -0.018 | filanesib -0.113 | zotarolimus 0.018 | idasanutlin -0.076 | alisertib -0.025 | [2] -0.036 | gefitinib 0.018 | [3] -0.032 | lapatinib -0.018 | pictilisib 0.086 | [4] -0.009 | crizotinib -0.047 | [5] 0.052 | [6] -0.03 | duvelisib 0.018 | gandotinib -0.015 | tozasertib 0.031 | [7] 0.03 | doramapimod -0.039 | ispinesib 0.015

METTL21A (UniProt Q8WXB1)
inactive: [1] -0.061 | filanesib 0.011 | zotarolimus 0.03 | idasanutlin -0.117 | alisertib -0.018 | [2] -0.124 | gefitinib 0.017 | [3] 0.08 | lapatinib 0.078 | pictilisib 0.034 | [4] -0.039 | crizotinib 0.063 | [5] 0.114 | [6] -0.019 | duvelisib 0.009 | gandotinib -0.048 | tozasertib -0.087 | [7] 0.03 | doramapimod 0.029 | ispinesib 0.062

MED23 (UniProt Q9ULK4)
inactive: [1] -0.019 | filanesib 0.003 | zotarolimus -0.058 | idasanutlin -0.007 | alisertib -0.121 | [2] -0.065 | gefitinib 0.103 | [3] -0.013 | lapatinib 0.141 | pictilisib 0.002 | [4] 0 | crizotinib -0.079 | [5] 0.016 | [6] 0.049 | duvelisib -0.036 | gandotinib -0.11 | tozasertib 0.043 | [7] 0.037 | doramapimod 0.07 | ispinesib -0.057

MCFD2 (UniProt Q8NI22)
inactive: [1] 0.043 | filanesib 0.126 | zotarolimus 0.116 | idasanutlin 0.008 | alisertib -0.269 | [2] -0.214 | gefitinib 0.035 | [3] 0.038 | lapatinib -0.073 | pictilisib -0.027 | [4] -0.004 | crizotinib 0.138 | [5] 0.332 | [6] -0.154 | duvelisib 0.214 | gandotinib 0.173 | tozasertib -0.024 | [7] -0.065 | doramapimod 0.075 | ispinesib 0.211

MED15 (UniProt Q96RN5)
inactive: [1] -0.02 | filanesib 0.036 | zotarolimus -0.017 | idasanutlin 0.02 | alisertib 0.039 | [2] -0.005 | gefitinib -0.02 | [3] -0.064 | lapatinib 0.005 | pictilisib -0.053 | [4] 0.043 | crizotinib -0.055 | [5] 0 | [6] -0.012 | duvelisib 0.004 | gandotinib -0.121 | tozasertib -0.001 | [7] 0.008 | doramapimod 0.038 | ispinesib -0.052

MCM4 (UniProt P33991)
inactive: [1] 0.022 | filanesib -0.091 | zotarolimus 0.016 | idasanutlin -0.048 | alisertib -0.032 | [2] 0.017 | gefitinib 0.013 | [3] 0.021 | lapatinib 0.02 | pictilisib -0.016 | [4] -0.003 | crizotinib -0.006 | [5] 0.069 | [6] -0.115 | duvelisib 0.044 | gandotinib -0.104 | tozasertib 0.031 | [7] 0.03 | doramapimod 0.002 | ispinesib 0.003

MCAT (UniProt Q8IVS2)
inactive: [1] 0 | filanesib 0.081 | zotarolimus 0.007 | idasanutlin 0.042 | alisertib -0.074 | [2] -0.064 | gefitinib 0.026 | [3] -0.04 | lapatinib 0.026 | pictilisib -0.075 | [4] -0.061 | crizotinib 0.028 | [5] -0.075 | [6] 0.077 | duvelisib -0.026 | gandotinib 0.029 | tozasertib -0.028 | [7] 0.021 | doramapimod 0.025 | ispinesib 0.012

Reprinted from above (2 entries):
MCFD2 (UniProt Q8NI22)
inactive: [1] 0.043 | filanesib 0.126 | zotarolimus 0.116 | idasanutlin 0.008 | alisertib -0.269 | [2] -0.214 | gefitinib 0.035 | [3] 0.038 | lapatinib -0.073 | pictilisib -0.027 | [4] -0.004 | crizotinib 0.138 | [5] 0.332 | [6] -0.154 | duvelisib 0.214 | gandotinib 0.173 | tozasertib -0.024 | [7] -0.065 | doramapimod 0.075 | ispinesib 0.211

MED15 (UniProt Q96RN5)
inactive: [1] -0.02 | filanesib 0.036 | zotarolimus -0.017 | idasanutlin 0.02 | alisertib 0.039 | [2] -0.005 | gefitinib -0.02 | [3] -0.064 | lapatinib 0.005 | pictilisib -0.053 | [4] 0.043 | crizotinib -0.055 | [5] 0 | [6] -0.012 | duvelisib 0.004 | gandotinib -0.121 | tozasertib -0.001 | [7] 0.008 | doramapimod 0.038 | ispinesib -0.052

The list goes on.

MED10 (UniProt Q9BTT4)
inactive: [1] -0.13 | filanesib 0.087 | zotarolimus 0.12 | idasanutlin -0.076 | alisertib 0.016 | [2] -0.175 | gefitinib -0.089 | [3] -0.05 | lapatinib 0.07 | pictilisib -0.089 | [4] -0.029 | crizotinib 0.12 | [5] 0.179 | [6] -0.096 | duvelisib 0.172 | gandotinib 0.018 | tozasertib 0.016 | [7] 0.098 | doramapimod 0.102 | ispinesib 0.064

MEA1 (UniProt Q16626)
inactive: [1] -0.061 | filanesib -0.047 | zotarolimus -0.074 | idasanutlin 0.121 | alisertib -0.056 | [2] 0.018 | gefitinib 0.007 | [3] 0.074 | lapatinib 0.006 | pictilisib -0.008 | [4] -0.02 | crizotinib 0.061 | [5] 0.136 | [6] -0.118 | duvelisib 0.056 | gandotinib -0.066 | tozasertib -0.032 | [7] -0.083 | doramapimod 0.053 | ispinesib 0.052

MBOAT7 (UniProt Q96N66)
inactive: [1] -0.001 | filanesib -0.021 | zotarolimus -0.013 | idasanutlin -0.047 | alisertib -0.071 | [2] 0.004 | gefitinib -0.007 | [3] 0.059 | lapatinib -0.02 | pictilisib -0.082 | [4] -0.033 | crizotinib 0.052 | [5] 0.011 | [6] -0.078 | duvelisib 0.018 | gandotinib -0.049 | tozasertib 0.01 | [7] -0.019 | doramapimod -0.013 | ispinesib -0.003

MBTPS1 (UniProt Q14703)
inactive: [1] -0.075 | filanesib 0.089 | zotarolimus 0.007 | idasanutlin 0.003 | alisertib -0.219 | [2] -0.036 | gefitinib 0.035 | [3] -0.037 | lapatinib 0.091 | pictilisib -0.017 | [4] 0.027 | crizotinib -0.059 | [5] -0.059 | [6] 0.022 | duvelisib -0.065 | gandotinib 0.079 | tozasertib 0.014 | [7] 0.026 | doramapimod 0.058 | ispinesib -0.197
